Some entries share one result that the patent states for a list of compounds.
Experiment: Thermogravimetric analysis (TGA) at 10° C./min
Type: physicochemical
Conditions: TGA 10° C./min, FIG. 2

O=C(O)c1ccccc1 [GBA, benzoic acid]
temperature by which essentially entirely gone: ≤ 200 °C

Reference: patent US20210195892A1, “COMPOSITION AND METHOD FOR MICROBIAL CONTROL ON MATERIAL SURFACES” (Microban Products Company, priority 2019, published 2021)
